Measurements from paper PMC11555414.
No constants are given. Whether binding was seen depends on the method and setting. Binding seen in cells or lysates may run through a third protein. Some entries that bind do so weakly or less than the wild type.

By UniProt entry, the sequences of proteins in these tests, tags left out. Residues count along the entry.
UniProt P23368, residues 19-584: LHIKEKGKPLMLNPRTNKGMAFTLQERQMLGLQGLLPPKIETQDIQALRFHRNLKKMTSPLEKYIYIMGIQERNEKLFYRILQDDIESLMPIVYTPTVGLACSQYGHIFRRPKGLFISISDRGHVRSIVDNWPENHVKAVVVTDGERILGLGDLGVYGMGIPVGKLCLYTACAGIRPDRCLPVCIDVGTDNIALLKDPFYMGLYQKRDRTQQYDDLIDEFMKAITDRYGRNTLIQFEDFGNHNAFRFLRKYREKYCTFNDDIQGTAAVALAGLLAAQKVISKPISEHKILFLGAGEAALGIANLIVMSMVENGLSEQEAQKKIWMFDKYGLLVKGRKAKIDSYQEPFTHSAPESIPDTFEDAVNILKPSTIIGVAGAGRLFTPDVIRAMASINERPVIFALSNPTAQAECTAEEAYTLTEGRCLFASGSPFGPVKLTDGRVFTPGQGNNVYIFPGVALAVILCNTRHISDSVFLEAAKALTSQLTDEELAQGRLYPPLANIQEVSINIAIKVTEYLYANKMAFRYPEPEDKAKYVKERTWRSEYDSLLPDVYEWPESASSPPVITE
UniProt Q99873: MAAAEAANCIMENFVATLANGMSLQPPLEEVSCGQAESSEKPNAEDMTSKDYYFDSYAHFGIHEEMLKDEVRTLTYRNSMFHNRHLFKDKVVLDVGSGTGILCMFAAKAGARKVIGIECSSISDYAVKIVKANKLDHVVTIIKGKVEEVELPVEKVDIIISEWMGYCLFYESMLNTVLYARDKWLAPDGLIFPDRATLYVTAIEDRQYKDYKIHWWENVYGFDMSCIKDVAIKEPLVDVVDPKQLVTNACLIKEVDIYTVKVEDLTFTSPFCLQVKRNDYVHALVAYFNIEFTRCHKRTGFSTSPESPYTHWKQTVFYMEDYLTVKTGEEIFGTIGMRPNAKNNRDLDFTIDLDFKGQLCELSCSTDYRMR
UniProt Q969H0: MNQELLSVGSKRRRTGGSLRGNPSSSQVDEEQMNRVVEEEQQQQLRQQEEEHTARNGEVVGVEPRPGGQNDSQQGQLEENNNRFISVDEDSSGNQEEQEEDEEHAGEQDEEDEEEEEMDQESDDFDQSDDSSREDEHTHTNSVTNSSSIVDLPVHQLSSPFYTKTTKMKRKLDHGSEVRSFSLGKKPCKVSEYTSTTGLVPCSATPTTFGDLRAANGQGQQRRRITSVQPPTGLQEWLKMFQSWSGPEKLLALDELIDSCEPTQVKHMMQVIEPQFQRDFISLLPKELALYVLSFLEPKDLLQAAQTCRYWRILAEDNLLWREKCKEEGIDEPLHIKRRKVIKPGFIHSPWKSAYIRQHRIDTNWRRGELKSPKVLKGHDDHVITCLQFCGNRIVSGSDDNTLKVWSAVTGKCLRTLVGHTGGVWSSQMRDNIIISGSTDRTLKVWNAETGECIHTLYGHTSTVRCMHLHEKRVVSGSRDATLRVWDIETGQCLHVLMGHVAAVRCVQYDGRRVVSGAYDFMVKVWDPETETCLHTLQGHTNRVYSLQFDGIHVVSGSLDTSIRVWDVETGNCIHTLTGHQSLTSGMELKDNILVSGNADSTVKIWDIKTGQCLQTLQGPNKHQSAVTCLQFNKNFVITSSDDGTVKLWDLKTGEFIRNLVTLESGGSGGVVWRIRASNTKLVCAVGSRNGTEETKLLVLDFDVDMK

Experiments:
[1] = molecular target: ME2 (mitochondrial malic enzyme 2), endogenous (human (endogenous in HCC cells)) (UniProt P23368); test: co-IP; immunoprecipitation of endogenous ME2 and FBW7 (Fig. 7E); cells not named
[2] = molecular target: ME2 (mitochondrial malic enzyme 2), endogenous (human (endogenous in HCC cells)) (UniProt P23368); test: co-IP; endogenous immunoprecipitation of FBW7 and ME2, effect of PRMT1 (Fig. 7I); cells not named
[3] = molecular target: ME2, exogenous (co-IPs with FBW7) (human) (UniProt P23368); test: co-IP; exogenous immunoprecipitation of FBW7 and ME2 (Fig. 7F, G); cells and tags not named
[4] = molecular target: ME2, exogenous (co-IPs with FBW7) (human) (UniProt P23368); test: co-IP; exogenous immunoprecipitation of FBW7 and ME2 with PRMT1 (Fig. 7H); cells and tags not named
[5] = molecular target: Flag-tagged PRMT1 (UniProt Q99873); test: co-IP; HEK293T cells transfected with Flag-tagged PRMT1 and HA-tagged ME2; anti-Flag M2 magnetic beads, NP40 buffer washes, western blotting
[6] = molecular target: ME2 in cytoplasmic and mitochondrial fractions of transfected HCC cells (human) (UniProt P23368); test: co-IP; cytoplasmic and mitochondrial fractions of HCC cells transfected with indicated plasmids, immunoprecipitated with an anti-Flag antibody, western blotting
[7] = molecular target: ME2 (mitochondrial malic enzyme 2), endogenous (human (endogenous in HCC cells)) (UniProt P23368); test: co-IP; endogenous ME2 and PRMT1 in HCC cells, immunoprecipitation in both directions (Fig. 1D, E), western blotting

Substance: FBW7, endogenous (immunoprecipitations of Fig. 7E and 7I) (from UniProt Q969H0 1-707)
- binding [1]: binds
- binding [2]: binds

Substance: FBW7, exogenous (from UniProt Q969H0 1-707)
- binding [3]: binds
- binding [4]: binds

Substance: HA-tagged ME2 (mitochondrial malic enzyme 2) (from UniProt P23368 19-584)
- binding [5]: binds

Substance: PRMT1 in cytoplasmic and mitochondrial fractions of transfected HCC cells (from UniProt Q99873 1-371) (enzyme)
- binding [6]: binds

Substance: protein arginine methyltransferase 1 (PRMT1), endogenous in HCC cells (from UniProt Q99873 1-371) (enzyme)
- binding [7]: binds
